Experiment [1] addresses SopB-N-GFP (pCS2-EGFP-N1-SopB, 29-168 amino acid) (Salmonella) (UniProt O30916). In words: co-IP; lysates of cells 16 h after transfection with SopB-GFP constructs; anti-GFP beads, 1 h, 4 °C; 50 mM Tris-HCl pH 8.0, 150 mM NaCl, 0.5% NP40, 1 mM EDTA; Western blotting for vimentin and Cdc42. For orientation: In western blotting, separated proteins are transferred to a membrane and probed.

Sequences of proteins named here, by UniProt entry; tags and fusion partners are left off.
UniProt P60953: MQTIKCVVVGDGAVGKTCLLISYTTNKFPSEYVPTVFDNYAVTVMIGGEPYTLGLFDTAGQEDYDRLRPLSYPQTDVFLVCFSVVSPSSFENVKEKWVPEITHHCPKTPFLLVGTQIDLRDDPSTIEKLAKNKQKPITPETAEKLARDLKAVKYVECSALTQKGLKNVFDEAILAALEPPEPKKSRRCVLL
UniProt P08670: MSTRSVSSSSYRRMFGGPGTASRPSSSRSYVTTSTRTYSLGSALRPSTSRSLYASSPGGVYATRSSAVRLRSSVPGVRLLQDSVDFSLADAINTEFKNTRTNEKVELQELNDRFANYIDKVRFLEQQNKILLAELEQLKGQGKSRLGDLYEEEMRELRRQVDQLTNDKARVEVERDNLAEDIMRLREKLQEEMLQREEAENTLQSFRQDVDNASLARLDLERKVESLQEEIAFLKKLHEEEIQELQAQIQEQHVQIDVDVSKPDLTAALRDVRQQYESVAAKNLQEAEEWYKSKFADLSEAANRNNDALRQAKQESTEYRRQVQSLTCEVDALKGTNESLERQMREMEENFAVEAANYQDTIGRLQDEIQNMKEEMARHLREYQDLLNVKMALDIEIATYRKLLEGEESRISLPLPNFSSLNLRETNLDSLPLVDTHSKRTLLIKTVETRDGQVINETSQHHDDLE

Experiment [2] has as its target SopB-ΔN-GFP (pCS2-EGFP-N1-SopB, 168-561 amino acid) (Salmonella) (UniProt O30916). The experiment is described as above.

Results are given in words; binding and its absence hold for the method and conditions named. Binding seen in cells or lysates may run through a third protein. Some results given as binding are weak or reduced against the parent protein; the word gives no strength.

Take “Cdc42 GTPase (from UniProt P60953 1-191)”: the binding result in experiment [1] is recorded as “binds”; in experiment [2] it was “no binding”.
For vimentin (from UniProt P08670 1-466) the same measures were “binds” and “no binding”.

For the origin of these results see article PMC9885066.
